These are yes or no findings as the source states them, for the method shown. In cells and extracts the contact can be indirect. Some binding calls cover weakened binding; strength is not graded here.
Biological target: GST-VPgHAT (Tobacco etch virus, strain HAT) (UniProt P04517)
Assay: GST pull-down, 35S-labeled in vitro-translated eIF4E

By UniProt entry, the sequences of proteins in these tests, tags left out. Residues count along the entry.
UniProt P04517, residues 1850-2037: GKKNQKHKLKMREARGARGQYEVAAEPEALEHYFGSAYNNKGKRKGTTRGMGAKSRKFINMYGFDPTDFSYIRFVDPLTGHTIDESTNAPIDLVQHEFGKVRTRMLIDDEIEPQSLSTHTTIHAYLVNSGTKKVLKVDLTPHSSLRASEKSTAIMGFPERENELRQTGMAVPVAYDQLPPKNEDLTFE

B1: eIF4E-RN (pvr1^+), 35S-labeled, translated in vitro from pET16b (protein)
chain: MATAEMEKTTTFDEAEKVKLNANEADDEVEEGEIVEETDDTTSYLSKEIATKHPLEHSWTFWFDNPVAKSKQAAWGSSLRNVYTFSTVEDFWGAYNNIHHPSKLVVGADLHCFKHKIEPKWEDPVCANGGTWKMSFSKGKSDTSWLYTLLAMIGHQFDHEDEICGAVVSVRGKGEKISLWTKNAANETAQVSIGKQWKQFLDYSDSVGFIFHDDAKRLDRNAKNRYTV
modifications: 35S-methionine label from in vitro translation
binding: binds
